This experiment deals with T1, CHIP K30A, recombinant, C-terminal His tag (human), Q9UNE7.
T1 chain: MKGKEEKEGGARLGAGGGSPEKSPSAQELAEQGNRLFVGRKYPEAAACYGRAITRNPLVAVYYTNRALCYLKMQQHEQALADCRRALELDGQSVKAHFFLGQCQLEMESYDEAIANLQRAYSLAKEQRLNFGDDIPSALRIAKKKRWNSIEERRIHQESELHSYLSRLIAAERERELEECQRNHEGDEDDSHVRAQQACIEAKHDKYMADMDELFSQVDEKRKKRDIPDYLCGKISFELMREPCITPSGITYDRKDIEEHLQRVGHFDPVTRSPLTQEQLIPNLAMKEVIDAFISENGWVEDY
Put plainly: mass photometry. The following applies: remark: other sources report otherwise.

No constants are given. Whether binding was seen depends on the method and setting. Some results given as binding are weak or reduced against the parent protein; the word gives no strength. Tags and fused reporters may be left off the sequences shown.

B1: CHIP K30A, recombinant, C-terminal His tag, Q9UNE7-1 1-303 (protein)
chain: T1 chain
For B1, the binding result is on record as “binds”.

The record behind these values is paper doi:10.1101/2025.11.26.690709.
